# Experimental data published in PubChem BioAssay AID1508600 (Functional Genomics Laboratory (NCATS/FGL), 2020).
# The whole screen tested about 53,000 sequences, of which about 3,700 (7%) were called active.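 The calls were made as follows: active = gene knockdowns whose robust z-score for IL-1 alpha signal is at least 2 or at most -2, so actives lie on both sides; inactive = the rest.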 The list shows a part of the results.
# Assay: Components of the Cytosolic LPS Sensing Pathway: Gene Identification via Genome-wide siRNA Screen;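 also: robust z of the log signal after scaling to non-targeting control siRNA wells of the plate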
# Details: RAW264.7 macrophages, IL-1a HTRF, actives lie on both sides, screened at 100 nM (by protocol), cells primed 5 h with Pam3CSK4 first
# Method in brief: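 IL-1a HTRF of supernatants after 24 hour LipidA transfection of Pam3CSK4-primed (5 hours) RAW264.7 cells, 48h post-siRNA transfection (100 nM). Scores: percent of plate negative-control median, then log-based robust z-score.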
row,Sequence,z-score
1,GGACCAUGAGACGAUGGGATT against Dysf,inactive: 0.167
2,GCCAAUGUGGAAUCAAAGGTT against Ms4a6c,inactive: 1.83
3,CCAGUGCAGGACCUCAUUUTT against Sod1,active: -2.06
4,GGGAAAGGAAACAUGGAACTT against Apom,inactive: 1.26
5,GGUUGAAUCCUAAGAAUGUTT against Edc3,inactive: 0.39
6,GGGCCUUACUCAAAUCCCUTT against Fbln5,inactive: -1.54
7,CGUGUAGCAAUGAGAUAUUTT against Trpc5,inactive: 0.162
8,GCCAAGACAUCAGAAGGAUTT against Nrxn1,inactive: 0.202
9,UCUAGAAUGAGGGUCUUUUTT against Il19,inactive: -0.0966
10,GCUAUGAAAAGUGUCUGCCTT against Cul4b,inactive: 0.934
11,GCAGCUAAUUAAGUCAAGGTT against Barhl1,inactive: -1.32
12,GCAACAAAUCAGAUUUGACTT against Dhdh,inactive: 0.246
13,GGUGAAAUUGCUCAGAUAATT against Narf,inactive: 0.387
14,GGUAUUUGGAAUCCAAUUGTT against Maged2,inactive: 0.65
15,GGAUAAAGAAGGUAUUCUUTT against Mccc1,inactive: -0.891
16,CCUAUCAUGGCAGAAUACUTT against 1300017J02Rik,inactive: -0.307
17,GGAAACAACAACUGUCACATT against Defb40,active: -2.13
18,GCUUUUCGAACAAGAGAAGTT against Ankle2,inactive: 0.0248
19,GCUAAUGACACCACUUUUGTT against Aldh9a1,inactive: -0.379
20,GGGAGUUGACUAGAAGUAATT against Bag1,inactive: -0.493
21,GGCAUGUCUUCACAGGUGATT against Snrk,inactive: 1.29
22,GGCAGAGCCUGGACAAAUATT against Slc6a4,inactive: 0.768

row,Sequence,z-score
1,GCAAUUGAGUCCAUAUAGCTT against Jtb,inactive: 0.0967
2,GGUAAAACCGACAUUGACCTT against Adgrl1,inactive: 0.51
3,GGCCUUAAAAUACCUUUGATT against Srpx,inactive: 1.12
4,GCAUAUUGAGGAAUUCCUATT against Sh3rf3,inactive: 0.231
5,GCUAAAUUCAGCUGAGGCUTT against Kdm4d,inactive: -0.217
6,GGUGGUGGCUGUGUAUAACTT against Cdh15,inactive: -0.14
7,GGACCAGUUAGUGAAGUGCTT against Rbm43,inactive: -1.2
8,GGAGCUCGUGAAGCUGUUUTT against Stk19,inactive: -1.61
9,CCUUGCAUUACUUCUAAAUTT against Aff2,inactive: 0.29
10,GGGUCCACAUAUAAUUACCTT against Slc36a3,inactive: 1.26
11,GGACAUCUUGCUGCUUCUATT against Srebf1,inactive: 0.0201
12,GGCCAGAGCCUGAAUUCUUTT against Bag4,inactive: 0.336
13,GCCCAUGAGUCAACAGUACTT against Ss18l1,inactive: -1.27
14,GGGAAGUACACAUUGAUUATT against Ndst4,inactive: 0.298
15,GGUUCACGAAGAACAUAAATT against Armcx6,inactive: -1.02
16,GGAAUCAGCUAAUGAUUUCTT against Tyw1,inactive: 0.819
17,GAUAAAAUGGGCAUUACCUTT against Olfr666,inactive: -0.721
18,GGCAGCAGAAGCUUAACAATT against Cadps2,inactive: 0.727
19,GGGUUUCAUACCCACUGCUTT against Cntnap1,inactive: -0.00358
20,GGUCCAAAAAUGCAAAGAATT against Agbl2,inactive: 1.83
21,GGUGUUUCGCUUGGAGGUGTT against Star,inactive: -0.381
22,CCGAUACCGGGUAUUUACCTT against Cd3eap,inactive: 0.439

# Rewritten with tabs: part of the list above
row	Sequence	z-score
2	GCCAAUGUGGAAUCAAAGGTT against Ms4a6c	inactive: 1.83
21	GGCAUGUCUUCACAGGUGATT against Snrk	inactive: 1.29
7	GGACCAGUUAGUGAAGUGCTT against Rbm43	inactive: -1.2
9	CCUUGCAUUACUUCUAAAUTT against Aff2	inactive: 0.29
15	GGUUCACGAAGAACAUAAATT against Armcx6	inactive: -1.02

# More results:

row,Sequence,z-score
1,GGAAACCACUAUCCACCUUTT against Ubd,inactive: -0.357
2,CCUACUUUAUUAUGUGUCATT against Mmp10,inactive: 0.0258
3,GGAACUUGCCAGAGAUACATT against Gak,inactive: 1.64
4,GCCUUUAGCAAAGUGGUUCTT against Rragd,inactive: 0.259
5,GGACCAAGAACCAGCAAUGTT against Defb6,inactive: -0.69
6,CCAGAUAUGAAGCUGCUCCTT against Rab28,inactive: -0.142
7,GGAGGAGCUGGAGAAAACATT against Psd4,inactive: -0.43
8,GGUGAUUGUCUGGGAUUCCTT against Gnb5,inactive: -0.609
9,GCUACUGGGAAUCUUUCAATT against 5730596B20Rik,inactive: 0.562
10,GGAAGGUUUAUUCUUGGAUTT against Shcbp1,inactive: -1.06
11,GCUUCUACGCGGCUACUUUTT against Elmod3,inactive: -0.0255
12,GGUAAUAUAUGACUCCAGCTT against Prelid3b,inactive: 0.381
13,GCCAACUGGAUAAAUGUCATT against Spdl1,inactive: -1.38
14,GGACAGAUUGUGGAAACCUTT against Ctnnd1,inactive: -0.978
15,GGACAAGUCCUUUGCUGUGTT against Zmynd8,inactive: -1.35
16,GGAGCCAAGAACUUUUCAGTT against Gorab,inactive: -0.216
17,GGUCUGAGCUGUGAUUACATT against Alkbh2,inactive: -0.183
18,GGUUAAAGACAUGUACUAGTT against 9930022D16Rik,inactive: 1.19
19,GGUUACGUGUUUGUAUCUATT against Higd1a,inactive: -0.395
20,CCGCCAUGUUCAUUGAAGATT against Spns1,inactive: -1.84
21,CGGUUUGCACAAGAAAUGGTT against Svs6,inactive: 0.0401
22,GCGGAGCAGAAUCUUCAUGTT against Olfr613,inactive: 1.57

row,Sequence,z-score
1,CCUUUAUUCUCUGUAUUUGTT against Obox1,inactive: -0.658
2,GGCUACUCAGCAGAUUGUCTT against Dclre1b,inactive: 0.000573
3,GAGAGCCAUGCAAACUAAGTT against Il19,inactive: 0.422
4,GCAAAUACCGAACUCCCAGTT against Aqp12,inactive: -0.262
5,CGAUGUGCAUUUUAAGUAGTT against Cdk2ap1,inactive: 0.825
6,GGGAGGUGCAAUCAGCUUUTT against Olfr1336,inactive: 0.395
7,GGCUACACCUUACUAGUGGTT against Prr36,inactive: -0.223
8,GGCAAAAUUAAAGCACAGUTT against L3hypdh,inactive: 0.922
9,CCAUCAUAUGAUCACGAAGTT against Cd83,inactive: -0.0915
10,CCAUAUCUCUAAAUGUCAATT against Opa1,inactive: 0.106
11,GGAUGGAGAAAAUGUUAUGTT against Strbp,inactive: -0.00962
12,GGAGAUUCCAGAGUUCUUGTT against Krba1,inactive: 0.426
13,CCGUUUUGAACCAUAAAAATT against Zfp7,inactive: -0.873
14,CCUUCGUAGUCUUGAUGUGTT against Olfr1179,inactive: -0.104
15,GGUGAUUGCCCGUUGAUUGTT against Dus4l,inactive: -1.22
16,GCAGUUACGUUAGUUAAUATT against Plekha1,inactive: 1.1
17,GGAGAAACUUUCAAAAGACTT against Trim36,inactive: -0.147
18,GGAGGCUCAACUGUGUUAATT against Tnfrsf4,inactive: -1.01
19,GGAAUAGCAUCACCAGUUGTT against Foxn3,inactive: -1.2
20,GGACACAAUAUGUGAAGUATT against Tasor2,inactive: 0.823
21,GGUGGUUACACAAGGAACATT against Phgdh,inactive: -0.314
22,GGACAGCAGUUUUUACUAGTT against Mllt10,inactive: 0.907

# Individual results from the list.
# For z-score, GCAAAUACCGAACUCCCAGTT against Aqp12 is entered as inactive: -0.262
# For z-score, GGACACAAUAUGUGAAGUATT against Tasor2 is entered as inactive: 0.823
# For z-score, GGGAGGUGCAAUCAGCUUUTT against Olfr1336 is entered as inactive: 0.395

# Additional results follow:

row,Sequence,z-score
1,CGCAGUGAGGAGUAUGAAGTT against Nin,active: 3.53
2,CCAAGAGCUAUGUUGGUUUTT against Txlna,inactive: -0.0704
3,GGAUAAACAUCAUGAAGCUTT against Scgb1a1,inactive: 0.00401
4,CCAGGAUUACUAUCACAAATT against Ep400,inactive: -1.17
5,GGAACUGGUGUCAUCUACATT against Plin3,inactive: -0.661
6,GGGAGUCCCAGCUUAGUAATT against Pou2f2,inactive: -1.33
7,GGUUGAUCUAAUGAUUGUGTT against Ccdc34,active: 2.5
8,GGGAAAAGAAAGUACCUACTT against Zcchc10,active: 2.26
9,GGGCUUCUUCUGCUAUGACTT against Plppr2,active: -2.2
10,GGAUGUAUGUUAAGAUUGATT against Olfr906,inactive: -1.2
11,GCUUUAAUUGUGAAAGCACTT against Miga1,active: -2.26
12,CCAAUGCUGAGGAGUCUUCTT against Dcun1d3,inactive: 0.00661
13,GCACCAAGAAUUAUAUACATT against Usp8,inactive: 1.84
14,GCAGAUAGCCCACGUCAUUTT against Nfkb2,inactive: 0.881
15,GCAUAUACUUGAUUACCGUTT against Olfr830,inactive: -0.391
16,GCUCAUGCAGAAAUGUUUUTT against Kri1,inactive: -0.371
17,GGUUCCAUGAUAUCGGAACTT against Tbx15,inactive: 0.811
18,GGAAAAUGCUCACAUAGUGTT against Pak1ip1,inactive: 0.442
19,GGUCGAAAGUUGUUUGUCATT against Arr3,inactive: -1.55
